In patent publication US20250296992A1 (Genmab, published 2025):
No constants are given. Whether binding was seen depends on the method and setting. Some entries that bind do so weakly or less than the wild type.

Protein sequences, listed by entry. Tags and fused reporters are not part of them. Residues count along the entry.
UniProt Q9H5Y7, residues 27-841: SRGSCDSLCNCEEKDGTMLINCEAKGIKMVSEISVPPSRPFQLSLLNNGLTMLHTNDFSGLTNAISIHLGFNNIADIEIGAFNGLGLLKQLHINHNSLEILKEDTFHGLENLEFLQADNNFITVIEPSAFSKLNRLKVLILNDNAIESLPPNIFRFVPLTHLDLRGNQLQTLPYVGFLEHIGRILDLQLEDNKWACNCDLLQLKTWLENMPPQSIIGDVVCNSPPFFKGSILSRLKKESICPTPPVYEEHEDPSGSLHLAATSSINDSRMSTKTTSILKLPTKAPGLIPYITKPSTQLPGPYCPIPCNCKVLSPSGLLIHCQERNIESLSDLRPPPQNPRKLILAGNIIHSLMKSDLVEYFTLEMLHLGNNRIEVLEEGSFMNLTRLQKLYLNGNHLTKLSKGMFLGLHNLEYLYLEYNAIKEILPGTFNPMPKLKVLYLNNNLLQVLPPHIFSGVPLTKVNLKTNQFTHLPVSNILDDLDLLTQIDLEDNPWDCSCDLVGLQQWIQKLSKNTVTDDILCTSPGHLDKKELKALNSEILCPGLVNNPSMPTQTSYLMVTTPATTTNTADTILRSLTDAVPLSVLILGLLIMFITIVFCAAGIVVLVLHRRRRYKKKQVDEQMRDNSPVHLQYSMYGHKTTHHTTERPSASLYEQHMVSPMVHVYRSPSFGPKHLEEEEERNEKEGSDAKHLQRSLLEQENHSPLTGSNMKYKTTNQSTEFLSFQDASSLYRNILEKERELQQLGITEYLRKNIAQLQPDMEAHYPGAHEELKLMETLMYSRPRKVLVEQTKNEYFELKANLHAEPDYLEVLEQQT

What was measured:
human SLITRK6 on cells [1] = biological target: T1, human SLITRK6 on cells (human, UniProt Q9H5Y7 27-841); test: flow cytometry on SW780 and RT4 cells
human SLITRK6 on cells [2] = biological target: T1, human SLITRK6 on cells; test: flow cytometry on RT4 cells, PE-conjugated anti-human Fc
human SLITRK6 on cells [3] = biological target: T1, human SLITRK6 on cells; test: flow cytometry on RT4, SW780, RT112/84, CHP-212, KYSE-30, KYSE-410 and 293F-huSLITRK6 cells
human SLITRK6 on cells [4] = biological target: T1, human SLITRK6 on cells; test: flow cytometry on KYSE-30 cells, PE-conjugated anti-human Fc
human SLITRK6 on cells [5] = biological target: T1, human SLITRK6 on cells; test: flow cytometry on KYSE-410 cells, PE-conjugated anti-human Fc
human SLITRK6 on cells [6] = biological target: T1, human SLITRK6 on cells; test: flow cytometry on 293F-huSLITRK6 cells, PE-conjugated anti-human Fc
human SLITRK6 on cells [7] = biological target: T1, human SLITRK6 on cells; test: flow cytometry on 293F-huSLITRK6-C9 cells, PE-conjugated anti-human Fc
human SLITRK6 on cells [8] = biological target: T1, human SLITRK6 on cells; test: flow cytometry on RT112/84 cells, PE-conjugated anti-human Fc
human SLITRK6 on cells [9] = biological target: T1, human SLITRK6 on cells; test: flow cytometry on CHP-212 cells, PE-conjugated anti-human Fc
human SLITRK6 on cells [10] = biological target: T1, human SLITRK6 on cells; test: flow cytometry on SCC-4 cells, PE-conjugated anti-human Fc
human SLITRK6 on cells [11] = biological target: T1, human SLITRK6 on cells; test: flow cytometry on CHP-212 cells (printed CHP212), PE-conjugated anti-human Fc
human SLITRK6 on cells [12] = biological target: T1, human SLITRK6 on cells; test: flow cytometry on SW780 cells, PE-conjugated anti-human Fc

Measured: binding

B1: Sirtratumab (antibody, V domains shown)
VH: QVQLVESGGGVVQPGRSLRLSCAASGFTFSSYGMHWVRQAPGKGLEWVAVIWYDGSNQYYADSVKGRFTISRDNSKNTLFLQMHSLRAEDTAVYYCARGLTSGRYGMDWGQGTTVTVSS
VL: DIVMTQSPLSLPVTPGEPASISCRSSQSLLLSHGFNYLDWYLQKPGQSPQLLIYLGSSRASGVPDRFSGSGSGTDFTLKISRVEAEDVGLYYCMQPLQIPWTFGQGTKVEIK
notes: Prior-art benchmark antibody; also called Sirtratuzumab
binds: all assays above

B2: AGS15E (antibody, V domains shown)
VH: QVQLVESGGGVVQPGRSLRLSCAASGFTFSSYGMHWVRQAPGKGLEWVAVIWYDGSNQYYADSVKGRFTISRDNSKNTLFLQMHSLRAEDTAVYYCARGLTSGRYGMDWGQGTTVTVSS
VL: DIVMTQSPLSLPVTPGEPASISCRSSQSLLLSHGFNYLDWYLQKPGQSPQLLIYLGSSRASGVPDRFSGSGSGTDFTLKISRVEAEDVGLYYCMQPLQIPWTFGQGTKVEIK
modifications: drug conjugate; drug-linker and positions not given
notes: also called ADC of Sirtratumab
not listed: human SLITRK6 on cells [7] | human SLITRK6 on cells [10] | human SLITRK6 on cells [11]
binds: all other assays above
